Reference: the supplement of paper PMC12067093, “Discovery and optimisation of a covalent ligand for TRIM25 and its application to targeted protein ubiquitination” (Chemical Science, 2025)
The list shows a part of the results.

These targets were tested with Cc1cc(ccc1-c1ccccc1)C(=O)N1CCCN(CC1)C(=O)CCl [compound 10] (assay: probe-labelled cysteine peptide fold change vs DMSO (competition) (log2 fold change); higher = less target engagement (more negative = stronger competition)). Conditions: 10 µM; THP-1; incubation time: 4 h.
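Also: competitive profiling in live THP-1 cells: cysteine peptides tagged with an iodoacetamide desthiobiotin (IA-DTB) probe, intensity after compound treatment relative to DMSO-treated cells.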

Target	probe-labelled cysteine peptide fold change
CPSF1_Q10570_20_QAHPPTGLEFSMYCNFFNNSER (UniProt Q10570)	0.0231
CSTF2T_Q9H0L4_441_GMETCAMETR (UniProt Q9H0L4)	-0.232
CPNE1_Q99829_30_SDPLCVLLQDVGGGSWAELGR (UniProt Q99829)	0.326
CTNNB1_P35222_520_NLALCPANHAPLREQGAIPR (UniProt P35222)	-0.303
CRLF3_Q8IUI8_336_DSIGVCAEK (UniProt Q8IUI8)	-0.131
CORO7_P57737_505_GLNLTTPGESDGFCANK (UniProt P57737)	-0.023
CST3_P01034_123_AFCSFQIYAVPWQGTMTLSK (UniProt P01034)	-0.584
CTCF_P49711_155_EGLAESEPMICHTLPLPEGFQVVK (UniProt P49711)	-0.325
CRYBG3_Q68DQ2_474_HEHLQLPESECSDK (UniProt Q68DQ2)	-0.181
CREBBP_Q92793_1213_KYEFSPQTLCCYGK (UniProt Q92793)	0.00616
CRELD2_Q6UXH1_294_EHGQCADVDECSLAEK (UniProt Q6UXH1)	-0.231
CTBS_Q01459_93_YDSELMCYAHSK (UniProt Q01459)	-0.068
CREBBP_Q92793_1212_KYEFSPQTLCCYGK (UniProt Q92793)	-0.135
CPSF1_Q10570_1178_GPVTALCHCNGHLVSAIGQK (UniProt Q10570)	-0.124
COX20_Q5RI15_29_LLGFLDVENTPCAR (UniProt Q5RI15)	-0.0256
CSTF3_Q12996_536_FMDLYPCSASELK (UniProt Q12996)	-0.0224
CRELD1_Q96HD1_281_ACLGCMGAGPGR (UniProt Q96HD1)	-0.0368
CTAGE5_O15320_579_GPGNPLDHQITNERGESSCDR (UniProt Q96PC5+O15320)	0.125
CSDE1_O75534_645_GDCLQK (UniProt O75534)	0.00859
CRACR2A_Q9BSW2_220_NELECALK (UniProt Q9BSW2)	-0.0374

Target	probe-labelled cysteine peptide fold change
CORO6_Q6QEF8_344_CEPIIMTVPR (UniProt Q6QEF8)	0.129
CRBN_Q96SW2_234_FHCANLTSWPR (UniProt Q96SW2)	-0.0246
CTCF_P49711_557_YHDPNFVPAAFVCSK (UniProt P49711)	-0.0109
CROT_Q9UKG9_584_SCPETDAEK (UniProt Q9UKG9)	-0.0249
CSDE1_O75534_106_MNGQVVCAVPHNLESK (UniProt O75534)	-0.186
CRYZ_Q08257_45_VHACGVNPVETYIR (UniProt Q08257)	0.0503
CTPS1_P17812_216_GLGLSPDLVVCR (UniProt P17812)	0.127
CSDE1_O75534_739_VCEGPK (UniProt O75534)	0.00319
CRIP1_P50238_28_DWHRPCLK (UniProt P50238)	0.251
CROT_Q9UKG9_210_AFVFDVIHEGCLVTPPELLR (UniProt Q9UKG9)	-0.0907
CPSF1_Q10570_324_ITLDCAQATFISYDK (UniProt Q10570)	0.134
CSDE1_O75534_506_QRPGQQVATCVR (UniProt O75534)	-0.0375
CRABP1_P29762_96_IHCTQTLLEGDGPK (UniProt P29762)	-0.0105
CSRP1_P21291_34_SCFLCMVCK (UniProt P21291)	0.1
CPSF4_O95639_162_RVICVNYLVGFCPEGPSCK (UniProt O95639)	-0.239
CPSF1_Q10570_532_SIRPQVVTTFELPGCYDMWTVIAPVRK (UniProt Q10570)	0.343
CROT_Q9UKG9_166_MLFSTCK (UniProt Q9UKG9)	-0.0518
CSDE1_O75534_680_ATVECVK (UniProt O75534)	0.0724
COX17_Q14061_23+24_KPLKPCCACPETK (UniProt Q14061)	-0.321
CRYBG1_Q9Y4K1_594+609_EVQLPTCHSNEPEVVSVASCAPPQEEVLGNEHSHCTAELAAK (UniProt Q9Y4K1)	-0.278

Reprinted at random: 3 entries already listed.
Target	probe-labelled cysteine peptide fold change
CORO6_Q6QEF8_344_CEPIIMTVPR (UniProt Q6QEF8)	0.129
CROT_Q9UKG9_166_MLFSTCK (UniProt Q9UKG9)	-0.0518
CPSF1_Q10570_532_SIRPQVVTTFELPGCYDMWTVIAPVRK (UniProt Q10570)	0.343
